These are yes or no findings as the source states them, for the method shown. In cells and extracts the contact can be indirect. Some binding calls cover weakened binding; strength is not graded here. Each block holds one molecule with its values, some of them ahead of it.
Columns and labels:
Assay in all cases: co-IP
[1] = biological target: T1, BRAT1 (endogenous, NT2) (human (endogenous in NT2)) (UniProt Q6PJG6)
T1 sequence: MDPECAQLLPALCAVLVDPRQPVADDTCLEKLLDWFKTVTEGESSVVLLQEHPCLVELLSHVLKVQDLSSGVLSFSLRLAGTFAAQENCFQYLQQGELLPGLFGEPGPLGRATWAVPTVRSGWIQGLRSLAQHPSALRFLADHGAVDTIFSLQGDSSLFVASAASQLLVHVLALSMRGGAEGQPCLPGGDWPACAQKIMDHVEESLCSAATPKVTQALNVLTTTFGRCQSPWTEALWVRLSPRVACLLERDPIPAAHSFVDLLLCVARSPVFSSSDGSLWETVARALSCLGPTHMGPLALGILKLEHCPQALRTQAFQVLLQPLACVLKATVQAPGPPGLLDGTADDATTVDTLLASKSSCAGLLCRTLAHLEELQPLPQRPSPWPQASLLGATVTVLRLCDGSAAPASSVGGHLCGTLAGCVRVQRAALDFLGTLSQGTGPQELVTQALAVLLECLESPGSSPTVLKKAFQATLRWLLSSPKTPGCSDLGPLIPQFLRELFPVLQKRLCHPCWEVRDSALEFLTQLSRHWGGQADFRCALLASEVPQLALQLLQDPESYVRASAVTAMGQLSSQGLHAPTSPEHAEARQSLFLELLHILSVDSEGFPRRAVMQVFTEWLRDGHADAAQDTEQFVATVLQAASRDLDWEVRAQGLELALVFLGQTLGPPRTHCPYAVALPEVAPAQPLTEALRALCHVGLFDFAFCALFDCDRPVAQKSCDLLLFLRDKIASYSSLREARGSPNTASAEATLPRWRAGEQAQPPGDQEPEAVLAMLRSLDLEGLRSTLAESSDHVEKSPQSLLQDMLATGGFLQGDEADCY

By UniProt entry, the sequences of proteins in these tests, tags left out.
UniProt Q9NV88: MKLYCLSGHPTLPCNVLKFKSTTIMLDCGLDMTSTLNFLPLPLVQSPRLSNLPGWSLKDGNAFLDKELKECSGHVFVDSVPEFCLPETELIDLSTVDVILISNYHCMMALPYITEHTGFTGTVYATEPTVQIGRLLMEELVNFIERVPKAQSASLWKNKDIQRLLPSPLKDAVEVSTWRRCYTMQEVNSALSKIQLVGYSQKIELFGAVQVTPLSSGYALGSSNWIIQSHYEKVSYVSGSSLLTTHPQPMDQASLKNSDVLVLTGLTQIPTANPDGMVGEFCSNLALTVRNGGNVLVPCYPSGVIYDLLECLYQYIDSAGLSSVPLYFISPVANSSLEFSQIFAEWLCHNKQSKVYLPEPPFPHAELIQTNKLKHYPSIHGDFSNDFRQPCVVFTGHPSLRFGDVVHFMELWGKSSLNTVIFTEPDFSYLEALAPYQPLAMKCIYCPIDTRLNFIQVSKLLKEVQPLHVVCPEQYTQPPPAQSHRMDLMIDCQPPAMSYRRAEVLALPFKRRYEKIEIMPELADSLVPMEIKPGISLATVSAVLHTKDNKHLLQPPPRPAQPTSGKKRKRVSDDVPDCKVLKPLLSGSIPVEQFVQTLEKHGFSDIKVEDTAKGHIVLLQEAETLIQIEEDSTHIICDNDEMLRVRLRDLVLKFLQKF
UniProt Q5TA45: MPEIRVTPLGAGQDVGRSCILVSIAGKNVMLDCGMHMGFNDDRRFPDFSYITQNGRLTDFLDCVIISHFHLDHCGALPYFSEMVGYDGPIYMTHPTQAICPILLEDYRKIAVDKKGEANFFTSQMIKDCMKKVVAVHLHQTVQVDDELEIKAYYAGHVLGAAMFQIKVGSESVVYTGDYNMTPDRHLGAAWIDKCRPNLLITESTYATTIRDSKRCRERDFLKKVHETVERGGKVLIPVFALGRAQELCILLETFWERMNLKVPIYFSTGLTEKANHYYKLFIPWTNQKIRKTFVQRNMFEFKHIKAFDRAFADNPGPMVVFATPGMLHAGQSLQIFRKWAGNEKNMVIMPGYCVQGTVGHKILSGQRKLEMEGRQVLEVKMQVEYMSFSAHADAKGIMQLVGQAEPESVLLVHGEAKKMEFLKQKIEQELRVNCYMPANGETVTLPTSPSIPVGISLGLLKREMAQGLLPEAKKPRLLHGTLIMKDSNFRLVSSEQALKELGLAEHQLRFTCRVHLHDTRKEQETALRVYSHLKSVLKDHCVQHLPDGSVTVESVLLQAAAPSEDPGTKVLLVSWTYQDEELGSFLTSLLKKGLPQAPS
UniProt Q96HW7: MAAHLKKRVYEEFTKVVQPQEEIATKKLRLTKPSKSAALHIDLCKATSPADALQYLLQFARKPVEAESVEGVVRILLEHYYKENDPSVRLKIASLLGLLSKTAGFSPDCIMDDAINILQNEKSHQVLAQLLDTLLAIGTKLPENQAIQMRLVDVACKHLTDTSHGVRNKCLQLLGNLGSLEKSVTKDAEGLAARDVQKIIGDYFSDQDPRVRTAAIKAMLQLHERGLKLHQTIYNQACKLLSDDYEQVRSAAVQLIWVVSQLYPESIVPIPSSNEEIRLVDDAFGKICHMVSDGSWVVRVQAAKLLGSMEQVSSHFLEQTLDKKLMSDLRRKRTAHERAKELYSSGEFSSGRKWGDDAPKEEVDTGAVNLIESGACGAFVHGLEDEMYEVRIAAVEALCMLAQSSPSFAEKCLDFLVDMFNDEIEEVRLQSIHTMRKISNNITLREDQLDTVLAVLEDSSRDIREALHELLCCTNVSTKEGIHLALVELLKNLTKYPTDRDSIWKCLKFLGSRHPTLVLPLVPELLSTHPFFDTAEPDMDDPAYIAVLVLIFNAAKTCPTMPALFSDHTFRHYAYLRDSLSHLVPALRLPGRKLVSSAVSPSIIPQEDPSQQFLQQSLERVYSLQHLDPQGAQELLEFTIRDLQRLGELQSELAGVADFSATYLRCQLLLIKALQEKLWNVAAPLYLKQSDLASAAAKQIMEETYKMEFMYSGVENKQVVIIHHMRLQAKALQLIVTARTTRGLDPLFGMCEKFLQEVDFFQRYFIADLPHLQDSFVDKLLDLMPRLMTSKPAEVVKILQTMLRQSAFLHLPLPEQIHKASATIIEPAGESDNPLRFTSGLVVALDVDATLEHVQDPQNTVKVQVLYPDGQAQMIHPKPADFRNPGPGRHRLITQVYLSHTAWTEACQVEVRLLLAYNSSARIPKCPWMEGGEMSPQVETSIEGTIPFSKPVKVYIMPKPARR
UniProt Q9UL03: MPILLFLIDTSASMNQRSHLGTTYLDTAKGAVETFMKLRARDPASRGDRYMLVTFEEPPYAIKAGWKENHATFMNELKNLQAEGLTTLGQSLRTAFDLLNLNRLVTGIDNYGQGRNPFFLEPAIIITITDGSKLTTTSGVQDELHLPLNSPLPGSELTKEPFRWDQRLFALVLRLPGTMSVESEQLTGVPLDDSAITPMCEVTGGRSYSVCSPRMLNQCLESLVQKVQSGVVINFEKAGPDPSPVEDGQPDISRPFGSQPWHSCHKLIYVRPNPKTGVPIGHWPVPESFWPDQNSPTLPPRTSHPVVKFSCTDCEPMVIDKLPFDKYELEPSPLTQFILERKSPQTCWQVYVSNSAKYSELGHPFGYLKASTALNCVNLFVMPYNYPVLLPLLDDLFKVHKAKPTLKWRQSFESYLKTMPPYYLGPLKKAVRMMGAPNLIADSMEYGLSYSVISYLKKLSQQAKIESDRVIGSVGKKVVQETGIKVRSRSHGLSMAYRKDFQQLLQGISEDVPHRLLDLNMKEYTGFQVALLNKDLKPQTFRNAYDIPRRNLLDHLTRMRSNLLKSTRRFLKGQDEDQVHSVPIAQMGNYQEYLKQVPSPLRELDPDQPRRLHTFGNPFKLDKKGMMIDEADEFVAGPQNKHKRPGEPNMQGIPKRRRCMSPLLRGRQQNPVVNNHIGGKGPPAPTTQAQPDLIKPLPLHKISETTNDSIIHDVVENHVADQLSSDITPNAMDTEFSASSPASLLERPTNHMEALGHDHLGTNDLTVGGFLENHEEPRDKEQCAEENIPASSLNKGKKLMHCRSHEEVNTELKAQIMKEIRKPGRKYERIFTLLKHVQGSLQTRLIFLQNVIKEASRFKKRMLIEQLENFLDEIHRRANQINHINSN

[2] = biological target: INTS9 (endogenous, NT2) (human (endogenous in NT2)) (UniProt Q9NV88)
[3] = biological target: INTS11 (endogenous, NT2) (human (endogenous in NT2)) (UniProt Q5TA45)
[4] = biological target: Flag-INTS11 (human) (UniProt Q5TA45)
[5] = biological target: Flag-INTS4 (human) (UniProt Q96HW7)
[6] = biological target: Flag-INTS6 (human) (UniProt Q9UL03)

Molecule: INTS4 (endogenous, NT2) (from UniProt Q96HW7 1-963)
binding [1]: no binding
binding [2]: binds

Molecule: INTS11 (endogenous, NT2) (from UniProt Q5TA45 1-600)
binding [1]: binds

B1: BRAT1 (endogenous, NT2) (protein, UniProt Q6PJG6-1 1-821)
chain: T1 sequence
binding [3]: binds
binding [2]: binds

Second part, the molecule after the results:

binding [1]: binds
Molecule: INTS9 (endogenous, NT2) (from UniProt Q9NV88 1-658)

binding [4]: binds
binding [5]: no binding
binding [6]: no binding
B2: BRAT1 (endogenous, HEK293T) (protein, UniProt Q6PJG6-1 1-821)
chain: T1 sequence

From paper doi:10.1101/2023.08.10.552743
